Laboratory results from PMC11891296, “Mechanical forces and ligand binding modulate Pseudomonas aeruginosa PilY1 mechanosensitive protein” (Life Science Alliance, 2025).
Results are given in words; binding and its absence hold for the method and conditions named.

By UniProt entry, the sequences of proteins in these tests, tags left out. Where a name states a change or a piece, a line headed by the entry shows the natural chain unless it says otherwise.
UniProt P06756: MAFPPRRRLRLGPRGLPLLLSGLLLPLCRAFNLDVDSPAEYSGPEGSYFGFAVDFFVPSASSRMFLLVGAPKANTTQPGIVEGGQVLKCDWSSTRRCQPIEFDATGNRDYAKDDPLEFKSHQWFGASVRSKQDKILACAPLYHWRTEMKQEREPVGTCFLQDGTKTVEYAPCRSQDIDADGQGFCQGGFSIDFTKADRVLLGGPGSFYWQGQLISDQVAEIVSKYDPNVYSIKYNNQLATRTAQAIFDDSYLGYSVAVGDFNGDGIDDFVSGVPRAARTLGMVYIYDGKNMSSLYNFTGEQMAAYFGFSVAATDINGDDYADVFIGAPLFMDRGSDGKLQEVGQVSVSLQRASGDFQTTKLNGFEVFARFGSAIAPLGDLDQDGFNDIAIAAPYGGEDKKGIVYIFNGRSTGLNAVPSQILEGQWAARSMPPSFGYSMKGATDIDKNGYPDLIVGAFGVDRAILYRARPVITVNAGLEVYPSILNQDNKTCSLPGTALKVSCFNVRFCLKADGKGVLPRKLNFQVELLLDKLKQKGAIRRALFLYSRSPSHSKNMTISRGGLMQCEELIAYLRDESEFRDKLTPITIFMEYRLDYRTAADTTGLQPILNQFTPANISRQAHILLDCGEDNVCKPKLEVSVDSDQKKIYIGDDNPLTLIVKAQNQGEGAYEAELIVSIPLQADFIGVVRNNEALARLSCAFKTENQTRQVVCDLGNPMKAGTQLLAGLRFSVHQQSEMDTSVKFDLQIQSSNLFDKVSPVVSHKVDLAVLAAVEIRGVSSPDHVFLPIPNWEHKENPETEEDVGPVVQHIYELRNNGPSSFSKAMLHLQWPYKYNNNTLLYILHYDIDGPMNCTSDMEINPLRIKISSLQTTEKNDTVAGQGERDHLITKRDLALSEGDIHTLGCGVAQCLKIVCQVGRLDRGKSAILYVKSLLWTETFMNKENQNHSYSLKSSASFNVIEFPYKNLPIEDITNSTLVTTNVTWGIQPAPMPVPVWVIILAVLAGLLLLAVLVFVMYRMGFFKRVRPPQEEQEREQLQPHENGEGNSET

Biological target: PilY1^642−1161 chimeric polyprotein (HaloTag-(I32)2-PilY1 residues 642-1161-(I32)2-HisTag-AviTag) (P. aeruginosa PAO1) (UniProt Q9HVM8)
Experiment: single-molecule magnetic tweezers; PilY1^642-1161 tethered; 800 nM integrin; cycles of unfolding at 40 pN, quench to 5.0 pN for 50-2,000 s, unfolding again at 40 pN; binding looked for as a change in the final unfolded extension; both purified

With “recombinant αVβ5 human integrin extracellular domains (from UniProt P06756 31-992; P18084 24-719) (complex)” the binding was “no binding (tested: 800 nM)”.
